The values below come from publication PMC9839844, “PPDPF Promotes the Development of Mutant KRAS‐Driven Pancreatic Ductal Adenocarcinoma by Regulating the GEF Activity of SOS1” (Advanced Science, 2022).

No constants are given. Whether binding was seen depends on the method and setting. Binding seen in cells or lysates may run through a third protein. Some binding calls cover weakened binding; strength is not graded here.

In assay [1] the target is T1, PPDPF, endogenous, Miapaca2 cells (human (endogenous in Miapaca2)) (UniProt Q9H3Y8).
T1 sequence: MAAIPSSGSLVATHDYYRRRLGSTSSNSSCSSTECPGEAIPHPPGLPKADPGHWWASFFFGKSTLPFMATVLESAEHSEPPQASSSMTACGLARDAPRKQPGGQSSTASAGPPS
The experiment in a line: co-IP; endogenous proteins in Miapaca2 cells; IP with PPDPF or SOS1 antibody.

In assay [2] the target is T2, PPDPF (pancreatic progenitor cell differentiation and proliferation factor), exogenous, in 293T cells (UniProt Q9H3Y8).
T2 sequence: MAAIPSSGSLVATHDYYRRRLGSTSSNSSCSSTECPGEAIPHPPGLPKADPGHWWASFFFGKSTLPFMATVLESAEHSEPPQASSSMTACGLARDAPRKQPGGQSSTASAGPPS
The experiment in a line: co-IP; exogenous proteins in HEK293T cells; IP lysis buffer with protease inhibitors, beads overnight, western blot. For orientation: A western blot detects proteins with antibodies after separation by electrophoresis.

In assay [3] the target is SOS1, endogenous, Miapaca2 cells (human (endogenous in Miapaca2)) (UniProt Q07889). The experiment in a line: co-IP; endogenous proteins in Miapaca2 cells; IP with PPDPF or SOS1 antibody.

Consider “SOS1, endogenous, Miapaca2 cells (from UniProt Q07889 1-1333)”, for which the binding result in assay [1] is “binds”.

As for “SOS1, exogenous, in 293T cells (from UniProt Q07889 1-1333)”, the binding entry in assay [2] is given as “binds”. As for “SOS1^Cat, in 293T cells (from UniProt Q07889 566-1046) (domain or fragment)”, the binding result in assay [2] is given as “binds”.

B1: PPDPF, recombinant (natural protein, UniProt Q9H3Y8 1-114, looked up)
chain: MAAIPSSGSLVATHDYYRRRLGSTSSNSSCSSTECPGEAIPHPPGLPKADPGHWWASFFFGKSTLPFMATVLESAEHSEPPQASSSMTACGLARDAPRKQPGGQSSTASAGPPS
notes: Pancreatic progenitor cell differentiation and proliferation factor (PPDPF); subcloned into pGEX-4T-1; The methods say that the beads were incubated with thrombin; also called PPDPF recombinant protein; source: E. coli BL21, purified (GST beads)
Regarding B1, the binding result in assay [3] is reported as “binds”.
